Data from article PMC10476265, “Optimized LC-MS/MS Method for the Detection of ppCCK(21–44): A Surrogate to Monitor Human Cholecystokinin Secretion” (Journal of Proteome Research, 2023).

Assay: ppCCK(21–44) in plasma of healthy volunteers after a standard mixed meal (Ensure), LC-MS/MS with ionKey
Assay type: in vivo, human
Conditions: EDTA plasma, mean (±SEM)

[Pyr]-QPVPPADPAGSGLQRAEEAPRRQL-acid [ppCCK(21–44), N-terminal peptide fragment of proCCK, surrogate analyte for CCK secretion]
ppCCK(21–44) plasma concentration, peak (healthy volunteers n = 9, 30 min after mixed liquid meal (237 mL Ensure plus)): 5.9 pmol/L
ppCCK(21–44) plasma concentration, baseline (healthy volunteers n = 9, after overnight fast, just before mixed liquid meal): 1.5 pmol/L
